In US20190321417A1, “BACTERIAL PROBIOTIC TO DETOXIFY HERBICIDES AND INSECTICIDES” (PRESIDENT AND FELLOWS OF HARVARD COLLEGE, priority 2018, published 2019):
At least one read-out could not be matched to a standard name with certainty.

Test system: Nasonia
Experiment: Herbicide toxicity (LC50) in adult Nasonia from generationally-atrazine exposed and naïve populations
Format: in vivo, Nasonia virtipennis
Settings: exposed vs naïve populations
From the text: FIGS. 3A-3C present data that show atrazine resistance. (FIG. 3A) The median lethal concentration of atrazine to kill half of the population (LC50) in ppm for each generation of the Naïve populations (open circles) and the Atrazine exposed populations (black circles). (FIG. 3B) The median lethal concentration of atrazine to kill half of the population (LC50) in ppm for each generation of the Naïve populations (open circles) and the Atrazine exposed populations (black circles) when grown Germfree, gnotobiotic. Without bacteria, both populations experience increased toxicity of atrazine, over 100 fold greater than normal generations' LC50. (FIG. 3C) LC50 survival of 24 hrs old adult Nasonia virtipennis were sprayed with a sterile PBS solution (squares), S. marcescens TVIT01 (8×10^6 cells/ml, circles), or P. protegens TVIT02 (3×10^8 cells/ml, triangles) and incubated for 6 hr before being fed 100 ppm of atrazine sugar solution (A) or only sugar solution (C), and their survival was calculated 48 hrs later. Three replicates of 50 individuals are for each treated group (Two-tailed t test, *P<0.05).
Toxicity experiments were conducted at a range of concentrations for both atrazine and Glyphosate to test the effect that the new microbiome has on increasing resistance. […] Mortality was recorded after 0, 24, 48, 72, 96, 120, 168 hours (from atrazine exposure point). […]

Row | Compound | resistance (LC50) of generationally-atrazine exposed populations compared to naïve population
1 | CCNc1nc(Cl)nc(NC(C)C)n1 [atrazine, Atrazine] | nearly ten times greater
2 | O=C(O)CNCP(=O)(O)O [Glyphosate, N-(phosphonomethyl)glycine] | twice as resistant
